PubChem BioAssay AID504804 – Drosophila RNAi Screening Center – 2011
The screen tested about 19,000 reagents; this is an unselected part of those with a known target gene and a result. Of all reagents, 47 (0.25%) are marked active. 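Signals are raw, not normalised; exact z-scores behind calls not deposited; actives needed confirmation, so some wells reaching 2 SD are inactive.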 Unmarked entries are inactive.

Screen: 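Fly genes whose loss lessens doxorubicin-driven cell death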 (primary screen)
Cell system: Drosophila Kc cells
Reagents: long dsRNA against Drosophila genes, 0.5 µg dsRNA per well
Timing: 96 h (48 h knock-down, then 48 h drug)
Challenge: doxorubicin 5 µg/ml for 48 h, added 48 h after dsRNA
Read-out: 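Luminescent ATP counts per replicate, not normalised, reflecting viable cells after 48 h dsRNA knock-down followed by 48 h of 5 µg/ml doxorubicin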
Direction: raw ATP luminescence: higher = more viable cells, protection from doxorubicin
Hit rule: 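z-score of 2 or more over plate mean in both duplicates, retained only when retests and separate dsRNAs confirm the protection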

| target | DRSC id | raw ATP luminescence, replicate 1 | raw ATP luminescence, replicate 2 |
| --- | --- | --- | --- |
| CG14669 | DRSC12065 | 66963 | 24953 |
| CG14669 | DRSC12067 | 77797 | 60377 |
| CG14669 | DRSC12068 | 69663 | 66540 |
| CG14669 | DRSC12255 | 68217 | 56940 |
| CG34242 | DRSC09185 | 1.57e5 | 1.40e5 |
| ck | DRSC03509 | 63897 | 48760 |
| TotA | DRSC13448 | 1.33e5 | 1.71e5 |
| CG31371 | DRSC15079 | 55230 | 48600 |
| Nadk1a | DRSC05431 | 85570 | 1.04e5 |
| Nadk1a | DRSC06963 | 69720 | 58823 |
| snRNP-U1-C | DRSC15804 | 30460 | 32330 |
| CG13138 | DRSC02235 | 43337 | 82533 |
| PGS1 | DRSC16304 | 51790 | 51950 |
| Rap2l | DRSC04646 | 79617 | 64910 |
| Polr1B | DRSC00780 | 1.11e5 | 78773 |
| NijC | DRSC14851 | 53160 | 53603 |
| CG14839 | DRSC14963 | 76470 | 73480 |
| Alp9 | DRSC10486 | 35830 | 45270 |

Next part; the last 3 above are carried over.
| target | DRSC id | raw ATP luminescence, replicate 1 | raw ATP luminescence, replicate 2 |
| --- | --- | --- | --- |
| NijC | DRSC14851 | 53160 | 53603 |
| CG14839 | DRSC14963 | 76470 | 73480 |
| Alp9 | DRSC10486 | 35830 | 45270 |
| Ate1 | DRSC05925 | 86437 | 81783 |
| CG4269 | DRSC04457 | 65163 | 48873 |
| anchor | DRSC10861 | 23800 | 21977 |
| Amyrel | DRSC05920 | 60927 | 56313 |
| aos | DRSC11323 | 42690 | 43397 |
| sut4 | DRSC07703 | 75603 | 69317 |
| Boh2 | DRSC02777 | 32567 | 64667 |
| mtt | DRSC05106 | 43320 | 40873 |
| mtt | DRSC05107 | 76660 | 90603 |
| mtt | DRSC06753 | 37490 | 97230 |
| mtt | DRSC07235 | 41277 | 68437 |
| CG8520 | DRSC07206 | 66180 | 53400 |
| Bcs1 | DRSC02789 | 52957 | 80063 |
| CG13670 | DRSC10029 | 59650 | 78090 |
| CG34159 | DRSC02885 | 19650 | 20650 |
| CG8738 | DRSC07256 | 41107 | 79610 |
